Screen size: about 300,000 compounds; about 5,400 (1.8%) were called active. The inconclusive results got no clear call from the source; some entries with a clear call stand among them for comparison. The call rests on the fitted dose curve; tested in HEK293 cells. Potencies of inconclusive entries are doubtful fits and often do not repeat.
assay: qHTS for inhibitors of binding or entry into cells for Marburg Virus; details: Marburg virus pseudotyped entry inhibition, cell reporter; activity change, negative = inhibition: at 37.8 µM (top of the series) unless noted
On the % scale 0 is the no-effect control and ±100 the full control effect; potency means the concentration at half of the fitted maximal effect.

Row | Structure (SMILES) | Potency | activity change, negative = inhibition
1 | c1ccc(Nc2cc(Nc3ccccc3)[nH]n2)cc1 | inconclusive: 6.51 µM [inhibitor, partial curve, poor fit] | 
2 | CCCCCNC(=O)CCc1ccccc1 |  | inactive: 7.31%
3 | CCOC(=O)c1ccc(N2C(=O)CC(N3CC=C(c4ccc(F)cc4)CC3)C2=O)cc1 (configuration not stated) |  | inactive: 12%
4 | COc1cccc(C(=O)NCC2OCCc3ccccc32)c1 (configuration not stated) | inconclusive: 2.82 µM [activator, partial curve, poor fit] | 
5 | CCn1nc(C)cc1C(=O)N1CCc2c([nH]c3ccccc23)C1c1cc(F)ccc1F (configuration not stated) | inconclusive: 12.6 µM [inhibitor, single point] | 
6 | O=C(NCCc1ccccc1)c1ccc2c(c1)N(Cc1ccc(Cl)cc1)C(=O)CS2 | inconclusive: 35.5 µM [inhibitor, single point] | 
7 | Cc1cccc(N2CCN(C(=S)NCCc3ccccc3)CC2)c1C |  | inactive: 0.508%
8 | COc1ccccc1NC(=O)c1ccccc1SC | inconclusive: 3.55 µM [inhibitor, single point] | 
9 | c1cc(-c2nnc3n2CCC3)[nH]n1 | inconclusive: 29.1 µM [activator, partial curve, poor fit] | 
10 | COc1ccc(N2C3=[N+](CCCC3)CC2(C)O)cc1 (configuration not stated) |  | inactive: 3.75%
11 | COc1ccc2nc3c(c(-c4ccccc4)c2c1)CCC3 |  | inactive: -10.2%
12 | CC(C)(C#CCN1CCCCC1)OCCOC(c1ccccc1)c1ccccc1 | inconclusive: 25.1 µM [inhibitor, single point] | 
13 | Cc1ccc(N2CCN(C(=O)NC3CCCCC3)CC2)c(C)c1 | inconclusive: 3.55 µM [inhibitor, full curve] | 
14 | O=C(N/N=C\c1ccccc1OCc1ccccc1)c1ccco1 |  | inactive: -12.6%
15 | CCCCN1CNC(=S)N(c2ccccc2OCC)C1 | inconclusive: 0.0891 µM [inhibitor, full curve, poor fit] | 
16 | Cc1cc(C(=O)Nc2sc3c(c2C#N)CCC3)no1 | inconclusive: 16.4 µM [inhibitor, partial curve, poor fit] | 
17 | CCC(C)NC(=O)CSc1n[nH]c(=O)n1CCc1ccccc1 (configuration not stated) |  | inactive: 2.78% [at 46.1 µM]
18 | O=C(CCS(=O)(=O)c1ccc(Br)cc1)Nc1cc(F)ccc1F | inconclusive: 3.26 µM [activator, partial curve, poor fit] | 
19 | CCOc1ccc(-c2nc(N)nc(C)c2-c2ccc(OC)c(OC)c2)c(O)c1 | inconclusive: 5.01 µM [inhibitor, partial curve, poor fit] | 
20 | Cc1ccc2oc(=O)n(CCC(=O)Nc3ccc(N4CCOCC4)cc3)c2c1 | inconclusive: 14.1 µM [activator, single point] | 
21 | COc1ccc(/C=C2\SC(=O)N(CCNC(=O)C3CCN(S(=O)(=O)c4cccs4)CC3)C2=O)cc1 | inconclusive: 12.6 µM [activator, partial curve, poor fit] | 
22 | O=C(c1ccco1)N1CCN(C(=O)c2ccc(-c3ccc([N+](=O)[O-])cc3)o2)CC1 | inconclusive: 11.2 µM [inhibitor, partial curve, poor fit] | 
23 | COc1ccccc1C(C)NCC(=O)Nc1c(F)cccc1F (configuration not stated) |  | inactive: 2.7% [at 46.1 µM]
24 | COC(=O)CCC(=O)OC1(C)C(=O)C2=CN(Cc3ccc4c(c3)OCO4)C(c3ccc(OC)cc3)=CC2=C(Br)C1=O (configuration not stated) |  | inactive: -3.83%

Fetched by structure from the entries so far (four):
Row | Structure (SMILES) | Potency | activity change, negative = inhibition
4 | COc1cccc(C(=O)NCC2OCCc3ccccc32)c1 (configuration not stated) | inconclusive: 2.82 µM [activator, partial curve, poor fit] | 
5 | CCn1nc(C)cc1C(=O)N1CCc2c([nH]c3ccccc23)C1c1cc(F)ccc1F (configuration not stated) | inconclusive: 12.6 µM [inhibitor, single point] | 
20 | Cc1ccc2oc(=O)n(CCC(=O)Nc3ccc(N4CCOCC4)cc3)c2c1 | inconclusive: 14.1 µM [activator, single point] | 
23 | COc1ccccc1C(C)NCC(=O)Nc1c(F)cccc1F (configuration not stated) |  | inactive: 2.7% [at 46.1 µM]

Later entries

Row | Structure (SMILES) | Potency | activity change, negative = inhibition
25 | CCN(CC)S(=O)(=O)c1ccc(C(=O)Nc2cc(C)cc(C)c2)cc1 | inconclusive: 0.0891 µM [inhibitor, full curve, poor fit] | 
26 | CC1=C(c2ccc(Cl)cc2)[N+](=O)C(C)(C)N1[O-] | inactive | 
27 | CC(C)[C@H](NC(=O)c1ccccc1)C(=O)O | inconclusive: 35.5 µM [activator, single point] | 
28 | COc1cc(C)ccc1OCCSc1nc2ccc(NC(=O)c3ccco3)cc2s1 |  | inactive: -16.3% [at 46.1 µM]
29 | CCOc1ccc(NC(=O)CN(C)C(=O)c2cccnc2Sc2ccc(Cl)cc2)cc1OCC | inconclusive: 35.5 µM [inhibitor, single point] | 
30 | Cc1csc(NC(=O)c2ccc(Br)s2)n1 | inconclusive: 15.8 µM [inhibitor, single point] | 
31 | CC(=O)c1cccc(NC(=O)c2cc(Cl)sc2Cl)c1 |  | inactive: 18.1%
32 | Cc1ccc(C)c(S(=O)(=O)N2CCN(CC(=O)NC(=O)NCc3ccccc3)CC2)c1 | inconclusive: 29.1 µM [inhibitor, single point] | 
33 | Cc1occc1-c1nnc(SCC(=O)c2ccc(F)cc2)o1 |  | inactive: 2.33%
34 | COC(=O)N[C@H](c1ccccc1)C(C(=O)OC)C(=O)OC |  | inactive: 28.2% [at 14.2 µM]
35 | CCOc1ccc(C(=O)NCc2ccc3c(c2)OCO3)cc1 |  | inactive: 18% [at 46.1 µM]
36 | COc1ccc(CCNC(=O)CC(Cc2ccccc2)C(=O)O)cc1OC (configuration not stated) |  | inactive: 24.7%
37 | Cc1nn(Cc2ccc(Cl)cc2Cl)c(C)c1NC(=O)CCl | inconclusive: 14.6 µM [inhibitor, partial curve, poor fit] | 
38 | COc1ccc(C=O)cc1CN1CCCN(Cc2ccccc2F)S1(=O)=O |  | inactive: 1.33% [at 46.1 µM]
39 | CC1Cc2ccccc2N1CC(=O)NC(=O)NCc1ccccc1 (configuration not stated) |  | inactive: 3.14% [at 46.1 µM]
40 | CCOC(=O)C(NC(=O)Cc1ccccc1)(Nc1cc(C)on1)C(F)(F)F (configuration not stated) | inconclusive: 0.461 µM [inhibitor, full curve, poor fit] | 
41 | COC(=O)c1c(C)nn(-c2ccc(OC(F)(F)F)cc2)c1-c1snnc1C | inconclusive: 22.4 µM [inhibitor, partial curve, poor fit] | 
42 | COCCCN1C(=O)C(=O)/C(=C(/O)c2ccc(OC)cc2)C1c1cccc(OC)c1 (configuration not stated) |  | inactive: -0.668%
43 | O=C(COc1ccc(Cl)cc1Cl)NC(=O)N1CCCCC1 | inconclusive: 0.411 µM [activator, partial curve, poor fit] | 
44 | COc1ccc(CCNC(=O)COc2ncnc3ccccc23)cc1OC |  | inactive: -11%
45 | On1nnc2cc(C(F)(F)F)ccc21 | inconclusive: 6.31 µM [activator, full curve] | 
46 | CNS(=O)(=O)c1ccc(NC(=S)Nc2ccc3c(c2)OCO3)cc1 | inconclusive: 0.794 µM [activator, full curve, poor fit] | 
47 | COc1cc(C(=O)OCCN2CCOCC2)ccc1O |  | inactive: -1.9% [at 46.1 µM]
48 | O=C(Nc1ccc(F)cc1Cl)C1=COCCO1 |  | inactive: 18.8% [at 46.1 µM]

Row | Structure (SMILES) | Potency | activity change, negative = inhibition
49 | O=[N+]([O-])c1ccc2c(c1)/C(=N\O)c1ccccc1-2 | inconclusive: 6.31 µM [inhibitor, single point] | 
50 | COc1ccc(C(=O)NC(=S)Nc2ccccc2N2CCOCC2)cc1Br | inconclusive: 35.5 µM [inhibitor, single point] | 
51 | CCc1ccc2nc3sc(C(=O)N4CCc5ccccc54)c(N)c3cc2c1 |  | inactive: 11.7%
52 | O=C(CSc1nc2c(c(=O)n1-c1ccc(Cl)cc1)SCC2)NCC1CCCO1 (configuration not stated) | inconclusive: 0.0355 µM [activator, partial curve, poor fit] | 
53 | O=C(NCC1COc2ccccc2O1)C1(c2ccccc2)CCCC1 (configuration not stated) | inconclusive: 14.1 µM [inhibitor, partial curve, poor fit] | 
54 | CSCc1ccc(C(=O)OCc2nc3ccccc3s2)o1 | inconclusive: 14.1 µM [activator, partial curve, poor fit] | 
55 | CCOc1ccc(Br)cc1S(=O)(=O)NCc1ccncc1 |  | inactive: -29.8% [at 46.1 µM]
56 | CCn1cc(C(=O)NCc2ccc3c(c2)OCO3)c(=O)c2cc(F)c(N3CCN(C)CC3)cc21 | inconclusive: 18.3 µM [inhibitor, single point] | 
57 | C=C(C)C(=O)Oc1ccc(N=Nc2ccc(C)cc2)ccc1=O | inconclusive: 31.6 µM [inhibitor, single point] | 
58 | O=C(Nc1cccc(S(=O)(=O)N2CCCCC2)c1)c1ccc2c(=O)n3c(nc2c1)CCCCC3 | active: 3.16 µM | 
59 | Cc1ccc(SCC(=O)OCC(=O)N(CC(C)C)c2c(N)n(Cc3ccccc3)c(=O)[nH]c2=O)c(C)c1 | inconclusive: 28.2 µM [inhibitor, single point] | 
60 | Nc1ccccc1SC1CC(=O)N(c2ccc3c(c2)OCCO3)C1=O (configuration not stated) | inconclusive: 14.1 µM [activator, partial curve] | 
61 | C[n+]1c2n(c3ccccc31)N=C(c1ccc(Cl)cc1)CS2 | inconclusive: 9.2 µM [inhibitor, partial curve] | 
62 | CC[n+]1ccc(C)c2cc(SC(F)(F)F)ccc21 | inconclusive: 5.62 µM [inhibitor, partial curve, poor fit] | 
63 | O=C(O)CCCCCn1c(SCC(=O)Nc2ccc(F)cc2)nc2ccsc2c1=O | inconclusive: 35.5 µM [activator, single point] | 
64 | Cc1ccc(S(=O)(=O)Nc2ccccc2C(=O)Nc2nc(-c3ccc(F)cc3)cs2)cc1 | active: 2.82 µM | 
65 | CCCCCn1c(CCNC(=O)c2cccs2)nc2ccccc21 | inconclusive: 18.3 µM [inhibitor, single point] | 
66 | N#C/C(=C(/O)CCl)c1nc(-c2ccccc2)cs1 |  | inactive: -4.59% [at 46.1 µM]
67 | COc1cccc(NC(=O)CN(C)C(=O)c2cc(-c3ccccc3)nc3ccc(C)cc23)c1 | inconclusive: 3.55 µM [inhibitor, single point] | 
68 | COc1ccc(NC(=O)Nc2ccc3nccnc3c2)cc1 | inconclusive: 0.316 µM [activator, full curve, poor fit] | 
69 | CCc1ccc(-c2csc3nc[nH]c(=O)c23)cc1 | inconclusive: 35.5 µM [activator, single point] | 
70 | CCc1ccc(-n2c(=O)c3c4c(sc3n(Cc3ccccc3C#N)c2=O)CCCC4)cc1 |  | inactive: -6.54% [at 46.1 µM]
71 | COc1ccc(C(C#N)N2CCC(c3ccccc3)=N2)cc1 (configuration not stated) | inconclusive: 6.31 µM [activator, full curve, poor fit] | 
72 | c1ccc2c(-c3nc(C4CCCCC4)no3)cc(-c3ccncc3)nc2c1 | inconclusive: 16.4 µM [inhibitor, partial curve, poor fit] | 
